Consider one molecule from article doi:10.1101/2025.06.14.659664 (bioRxiv, 2025).

These are yes or no findings as the source states them, for the method shown. Where a sequence is shown, tags or fusion partners need not be part of it.

The experiment concerns the target GBI-Uba7-UFD fusion protein (human Uba7 ubiquitin-fold domain, residues 903-1011), wild type (human) (UniProt P41226). The experiment is described as follows: NMR 15N relaxation.

B1: GBI-Uba7-UFD fusion protein (human Uba7 ubiquitin-fold domain, residues 903-1011), wild type (domain or fragment, UniProt P41226 903-1011, looked up)
chain: IQTFHHLKWTSWDRLKVPAGQPERTLESLLAHLQEQHGLRVRILLHGSALLYAAGWSPEKQAQHLPLRVTELVQQLTGQAPAPGQRVLVLELSCEGDDEDTAFPPLHYE
B1: the binding result is reported as “no binding”.
